{
  "source": "patent US20110003774A1",
  "about": "“COMPOUNDS HAVING ANTI-PROLIFERATIVE PROPERTIES” (VITAL HEALTH SCIENCES PTY. LTD., priority 2003, published 2011)",
  "key": {"[1]": {"test_system": "Rat Aortic Smooth Muscle Cells (RASMC)", "assay": "MTS proliferation assay (Example 2, Study 2)", "format": "cell-based", "settings": "100 μM, vs vehicle control", "experimental": "The MTS proliferation assay was conducted to further support and compliment the adhered cell counts assay. The MTS assay is a well established method for the assessment of cellular proliferation which takes into account the viable cells that are adhered to the plate (as in adhered cell counts) and those that may become detached and float in the media during the course of the experiment (which would be missed in adhered cell counts)."}, "[2]": {"test_system": "Rat Aortic Smooth Muscle Cells (RASMC)", "assay": "Counting adhered cells (Example 2, Study 1)", "format": "cell-based", "settings": "adhered cell counts, 0-100 μM, vs vehicle control", "experimental": "This example assesses the anti-proliferative activity of α-tocopheryl phosphate (TP), di-tocopheryl phosphate (T2P), the TP/T2P mixture and α-tocopherol using two types of cell counting assays: adhered cell counts and MTS assay.\nIn this study cells remaining on the bottom of the plate were counted and anti-proliferative activity was assessed based on the number of viable cells that remained adhered to the plate."}},
  "note": "Some entries share one result that the patent states for a list of compounds. For at least one compound, name, drawing or mass did not settle the structure.",
  "data": [
    {"compound": "Cc1c(C)c2c(c(C)c1OP(=O)(O)Oc1c(C)c(C)c3c(c1C)CCC(C)(CCCC(C)CCCC(C)CCCC(C)C)O3)CCC(C)(CCCC(C)CCCC(C)CCCC(C)C)O2", "note": "(centres unmarked) [T2P, di-tocopheryl phosphate]", "values": [
      {"measurement": "Inhibition of smooth muscle cell proliferation", "setting": "[1]", "result": "85-90%"},
      {"measurement": "Maximum inhibition of smooth muscle cell proliferation", "setting": "[2]", "result": "85-90%"}
    ]}
  ]
}
